Results are given in words; binding and its absence hold for the method and conditions named. In cells and extracts the contact can be indirect. Some results given as binding are weak or reduced against the parent protein; the word gives no strength.
Legend:
[1] = target: Toll-like receptor 4 (human (endogenous in SH-SY5Y)) (UniProt O00206); assay: cross-linking + co-IP; serum starved SH-SY5Y cells treated with resistin (200 ng/mL) for 1 h at 4 °C, BS3 2.5 mM for 1 h at 4 °C, quenched with 20 mM Tris-HCl pH 7.5; lysates immunoprecipitated with anti-TLR4, blotted for TLR4 or resistin (legend: resistin 100 ng/ml for 16 h, with or without BS3); only the binder …
[2] = target: Toll-like receptor 4 (human (endogenous in SH-SY5Y)) (UniProt O00206); assay: co-IP; SH-SY5Y lysates incubated with anti-TLR4 overnight at 4 °C, protein A-agarose 2 h at 4 °C; blotted for TLR4, MyD88 or TIRAP; cells pre-treated with palmitic acid, DHA or placebo and challenged with resistin

Chains of the proteins cited; added tags and fusions are not shown. Residues count along the entry.
UniProt O00206, residues 24-839: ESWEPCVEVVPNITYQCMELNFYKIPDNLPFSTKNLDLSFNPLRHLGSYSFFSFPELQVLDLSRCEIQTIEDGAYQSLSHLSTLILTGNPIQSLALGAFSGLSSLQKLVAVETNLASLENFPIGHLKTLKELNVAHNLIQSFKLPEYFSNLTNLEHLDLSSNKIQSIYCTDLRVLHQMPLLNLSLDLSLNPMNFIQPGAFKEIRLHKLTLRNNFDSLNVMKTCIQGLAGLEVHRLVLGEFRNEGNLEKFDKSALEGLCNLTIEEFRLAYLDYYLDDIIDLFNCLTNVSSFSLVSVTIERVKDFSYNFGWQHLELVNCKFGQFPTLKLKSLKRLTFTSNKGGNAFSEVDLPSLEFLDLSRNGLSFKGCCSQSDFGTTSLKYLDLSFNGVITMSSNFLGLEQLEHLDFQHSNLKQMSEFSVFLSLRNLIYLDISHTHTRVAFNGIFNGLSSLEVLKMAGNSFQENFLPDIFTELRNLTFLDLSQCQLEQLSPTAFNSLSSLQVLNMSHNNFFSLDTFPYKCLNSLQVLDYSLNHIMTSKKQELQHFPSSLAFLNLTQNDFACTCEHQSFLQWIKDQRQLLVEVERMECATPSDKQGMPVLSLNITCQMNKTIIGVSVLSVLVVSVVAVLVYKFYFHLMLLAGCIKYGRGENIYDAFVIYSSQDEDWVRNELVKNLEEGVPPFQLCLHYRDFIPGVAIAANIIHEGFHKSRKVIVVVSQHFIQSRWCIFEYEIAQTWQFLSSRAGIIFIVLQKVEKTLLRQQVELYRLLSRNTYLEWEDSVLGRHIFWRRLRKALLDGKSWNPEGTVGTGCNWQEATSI
UniProt Q9HD89, residues 19-108: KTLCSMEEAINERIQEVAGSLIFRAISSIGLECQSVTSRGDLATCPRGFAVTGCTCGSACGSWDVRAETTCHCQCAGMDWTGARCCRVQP
UniProt Q99836: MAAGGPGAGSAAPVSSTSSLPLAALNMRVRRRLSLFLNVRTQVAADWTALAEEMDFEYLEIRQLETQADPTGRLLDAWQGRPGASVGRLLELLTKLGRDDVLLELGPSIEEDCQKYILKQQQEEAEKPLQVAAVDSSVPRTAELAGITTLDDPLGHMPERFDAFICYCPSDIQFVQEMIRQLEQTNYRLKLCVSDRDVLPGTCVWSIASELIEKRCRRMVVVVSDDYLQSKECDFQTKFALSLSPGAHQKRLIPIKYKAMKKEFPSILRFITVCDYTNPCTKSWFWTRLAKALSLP
UniProt P58753: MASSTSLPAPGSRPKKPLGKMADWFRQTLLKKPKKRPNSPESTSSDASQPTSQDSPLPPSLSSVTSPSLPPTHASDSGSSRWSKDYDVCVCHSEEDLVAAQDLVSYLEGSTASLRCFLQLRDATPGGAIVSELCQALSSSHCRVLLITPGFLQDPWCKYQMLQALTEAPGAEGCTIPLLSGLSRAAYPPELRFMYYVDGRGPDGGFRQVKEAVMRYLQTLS

Row | Substance | binding [1] | binding [2]
1 | Human resistin (from UniProt Q9HD89 19-108) (ligand) | binds | 
2 | MyD88 (from UniProt Q99836 1-296) |  | binds
3 | TIRAP (from UniProt P58753 1-221) |  | binds

From article PMC7940652
